Test results: patent US12673945B2, “3-((8-((1H-pyrazol-4-yl)amino)imidazo[1,2-a]pyridin-3-yl)ethinyl)-n-phenylbenzamide derivative, method for preparing same, and pharmaceutical composition containing same as active ingredient for prevention or treatment of cancer” (DAEGU-GYEONGBUK MEDICAL INNOVATION FOUNDATION, priority 2020, dated 2026)
For at least one compound, name, drawing or mass did not settle the structure.

Test system: Luc_Ba/F3 T315I-Bcr-Abl cell line
Assay: in vivo pharmacological activity, blood cancer mouse model
Parameters: species or system nude mice
Conditions: all treated groups, oral once a day for 10 days; images days 0, 4, 11, 18
Description: After the mice were adapted to an animal facility for 1 week, the Luc_Ba/F3 T315I-Bcr-Abl cell line emitting luciferase was transplanted into the caudal vein at the density of 5×10^6/animal. Group separation was performed 3 days after the cell line transplantation. On the day of the group separation, 10 mice were randomly assigned to each group of 5 groups so that the luminescence values were equal after luminescence measurement using IVIS spectrum-CT optical imaging equipment.
In addition, the body weight and survival rate of each experimental group were monitored.
Statistical analysis was performed using GraphPad Prism 8, and the statistical significance of the survival rate was confirmed using unpaired t test and log-rank (Mantel-Cox) test.

Cc1ccc(C(=O)Nc2ccc(CN3CCN(C)CC3)c(C(F)(F)F)c2)cc1C#Cc1cnc2cccnn12 [ponatinib, reference compound]
luminescence values in optical images compared to the vehicle group (FIG. 1): weak luminescence values
